The results in this text go back to PubChem BioAssay AID248 (DTP/NCI, 2004).

The test system of the test is L1210 leukemia ip in BDF1 mice, survival T/C. The test can be described thus: NCI In Vivo Anticancer Drug Screen. Data for tumor model L1210 Leukemia (intraperitoneal) in B6D2F1 (BDF1) mice. To be noted: T/C endpoint: mean survival time, higher T/C = longer survival.
Where [1] appears, read: dose: 400.0 mg/kg/injection, schedule: Q01DX001 (ip), vehicle: carboxymethylcellulose (CMC).
The mark [2] stands for this setting: dose: 100.0 mg/kg/injection, schedule: Q04DX003 (ip), vehicle: saline with Tween-80.
Setting [3] is: dose: 400.0 mg/kg/injection, schedule: Q04DX003 (ip), vehicle: Klucel (hydroxypropylcellulose) (HPC).
Where [4] appears, read: dose: 200.0 mg/kg/injection, schedule: Q04DX003 (ip), vehicle: saline with Tween-80.
Where [5] appears, read: dose: 400.0 mg/kg/injection, schedule: Q04DX003 (ip), vehicle: saline with Tween-80.
[6] abbreviates: dose: 400.0 mg/kg/injection, schedule: Q04DX002 (ip), vehicle: Klucel (hydroxypropylcellulose) (HPC).
[7] abbreviates: dose: 400.0 mg/kg/injection, schedule: Q04DX003 (ip), vehicle: saline.
Setting [8] is: dose: 100.0 mg/kg/injection, schedule: Q04DX003 (ip), vehicle: Klucel (hydroxypropylcellulose) (HPC).
[9] abbreviates: dose: 200.0 mg/kg/injection, schedule: Q04DX003 (ip), vehicle: Klucel (hydroxypropylcellulose) (HPC).

The list is a part of this screen's results and no random one: it gathers tests that were run many times, whatever their T/C, doses with no T/C, and many T/C values between a quarter and a half above the control. Further doses and runs are listed elsewhere. T/C gives the treated animals as a percentage of the vehicle group. Some entries give survivors of the animals treated and no T/C: the source holds a T/C of zero for them, seemingly a mark for toxic or unscored doses. Some doses without a T/C left all or most animals alive at the check, yet need not have been tolerated: the source hardly ever lists a survival T/C far under the control, and the zero likely stands for such cases as well. Survivors were counted at the toxicity check, usually on the fifth day, unless a day is given; later deaths do not show. Schedule codes are those of the source, taken here to give the interval after Q, in days (D) or hours (H), and the number of doses after X. Some entries hold several experiments; the values are given in rising order. Where survival is the endpoint, the PubChem record calls one and a half times the control and up active, and a quarter to a half above the control has no call in these data; cut-offs in other NCI protocols can differ. Some T/C values carry the count of animals alive at the toxicity check (mostly the fifth day); where none is given, no animal had died by that day.

As for `Cc1ccc2nc(NC(=O)N(CCCl)N=O)sc2c1`, the T/C is 127 % of control (dose: 35.0 mg/kg/injection, schedule: Q01DX001 (ip), vehicle: other); 138 % of control (dose: 52.0 mg/kg/injection, schedule: Q01DX001 (ip), vehicle: other); 138 % of control (dose: 79.0 mg/kg/injection, schedule: Q01DX001 (ip), vehicle: other); 130 % of control (dose: 80.0 mg/kg/injection, schedule: Q01DX001 (ip), vehicle: carboxymethylcellulose (CMC)); 140 % of control (dose: 100.0 mg/kg/injection, schedule: Q01DX001 (ip), vehicle: carboxymethylcellulose (CMC)); 143 % of control (dose: 120.0 mg/kg/injection, schedule: Q01DX001 (ip), vehicle: carboxymethylcellulose (CMC)). The T/C was 145 % of control (dose: 177.0 mg/kg/injection, schedule: Q01DX001 (ip), vehicle: carboxymethylcellulose (CMC)); 125 % of control (dose: 177.0 mg/kg/injection, schedule: Q01DX006 (ip), vehicle: other); 144 % of control (dose: 177.0 mg/kg/injection, schedule: Q01DX009 (ip), vehicle: carboxymethylcellulose (CMC)); 145 % of control (dose: 266.0 mg/kg/injection, schedule: Q01DX001 (ip), vehicle: carboxymethylcellulose (CMC)); 140 % of control under setting [1]; 148 % of control [5 of 6 alive] (dose: 600.0 mg/kg/injection, schedule: Q01DX001 (ip), vehicle: carboxymethylcellulose (CMC)). Further, the survivor count (dose: 400.0 mg/kg/injection, schedule: Q01DX009 (ip), vehicle: carboxymethylcellulose (CMC)) is 6 of 6 and the survivor count (dose: 600.0 mg/kg/injection, schedule: Q01DX009 (ip), vehicle: carboxymethylcellulose (CMC)) was 3 of 6.
As to `NNc1ccc(-c2ccc(NN)cc2)cc1`, under setting [2], the survivor count is 0 of 6.
As for `CC(C)NS(=O)(=O)c1ccc(Cl)cc1`, the survivor count under setting [3] is reported as 3 of 6.
Consider `NC1=NN(c2ccccc2)CC1`, for which the survivor count under setting [2] is 0 of 6, the survivor count under setting [4] is 0 of 6 and the survivor count under setting [5] is 0 of 6.
For the molecule `Cc1c(F)cccc1NCC(=O)NN`, the survivor count under setting [6] is recorded as 0 of 3.
`O=C(C[n+]1cccc(C(=O)Nc2ccc(Cl)cc2)c1)Nc1ccccc1`: the survivor count under setting [7] is recorded as 0 of 6.
`Cc1ccc(S(=O)(=O)OCCN(CCOS(=O)(=O)c2ccc(C)cc2)c2cc(OCc3ccccc3)cc(OCc3ccccc3)c2)cc1`: the survivor count (dose: 200.0 mg/kg/injection, schedule: Q01DX009 (ip), vehicle: water) is 6 of 6.
Regarding `O=C1c2cccc3cccc(c23)C(=O)N1CCCCCCCCN1C(=O)c2cccc3cccc(c23)C1=O`, the survivor count under setting [6] is listed as 2 of 3.
On to `COc1ccc([N+](=O)[O-])cc1NC(=O)Nc1ccc(SC)cc1`, for which the survivor count (dose: 100.0 mg/kg/injection, schedule: Q01DX009 (ip), vehicle: Klucel (hydroxypropylcellulose) (HPC)) is 6 of 6.
Take `C1=NCCCN2CCCCC12` (centres undefined): the survivor count reads like this: (dose: 37.5 mg/kg/injection, schedule: Q01DX009 (ip), vehicle: Klucel (hydroxypropylcellulose) (HPC)) 0 of 6; (dose: 75.0 mg/kg/injection, schedule: Q01DX009 (ip), vehicle: Klucel (hydroxypropylcellulose) (HPC)) 0 of 6; (dose: 150.0 mg/kg/injection, schedule: Q01DX009 (ip), vehicle: Klucel (hydroxypropylcellulose) (HPC)) 0 of 6; (dose: 300.0 mg/kg/injection, schedule: Q01DX009 (ip), vehicle: Klucel (hydroxypropylcellulose) (HPC)) 0 of 6.
As for `COc1ccc(NC(=O)NCc2cccc(Cl)c2)cc1`, the T/C (dose: 200.0 mg/kg/injection, schedule: Q04DX002 (ip), vehicle: Klucel (hydroxypropylcellulose) (HPC)) is 125 % of control.
Take `O=C(O)CCI`: the survivor count (dose: 400.0 mg/kg/injection, schedule: Q04DX003 (ip), vehicle: other) was 3 of 6.
`CCN(CC)CCOc1ccccc1C`: the survivor count (dose: 160.0 mg/kg/injection, schedule: Q04DX003 (ip), vehicle: saline) is reported as 1 of 6.
Regarding `C1CCC2(CC1)CCCCC2`, the survivor count reads like this: (dose: 100.0 mg/kg/injection, schedule: Q01DX001 (ip), vehicle: saline) 0 of 4; (dose: 200.0 mg/kg/injection, schedule: Q01DX001 (ip), vehicle: saline) 0 of 4; (dose: 400.0 mg/kg/injection, schedule: Q01DX001 (ip), vehicle: saline) 0 of 4.
In the case of `O=C(Nc1ccc(F)c([N+](=O)[O-])c1)Oc1cccnc1`, the T/C (dose: 100.0 mg/kg/injection, schedule: Q01DX009 (ip), vehicle: saline with Tween-80) is 87 [2 of 3 alive], 93 [5 of 6 alive], 99, 103 % of control [4 of 6 alive]. Further, the survivor count reads like this: (dose: 200.0 mg/kg/injection, schedule: Q01DX009 (ip), vehicle: saline with Tween-80) 0 of 3 and 1 of 6; (dose: 400.0 mg/kg/injection, schedule: Q01DX001 (ip), vehicle: saline with Tween-80) 0 of 6; (dose: 400.0 mg/kg/injection, schedule: Q01DX009 (ip), vehicle: saline with Tween-80) 0 of 3 and 0 of 6; under setting [5], 0 of 6.
On to `CC[N+](C)(CC)CCCOC(=O)c1ccccc1Oc1ccc(C)cc1`, for which the survivor count under setting [7] is 0 of 6.
Consider `CCc1n[nH]c(=S)n1N`, for which the survivor count by setting is: under setting [8], 0 of 6; under setting [9], 0 of 6; under setting [3], 0 of 6.
`COc1cc2c(cc1OC)C1CCN3CCCC3N1CC2` (centres undefined): the survivor count is 3 of 6 under setting [9] and 1 of 6 under setting [3].
Turning to `C/C(CCCCl)=N/NC(N)=S`, the survivor count (dose: 25.0 mg/kg/injection, schedule: Q01DX009 (ip), vehicle: saline) is recorded as 6 of 6; the survivor count (dose: 50.0 mg/kg/injection, schedule: Q04DX003 (ip), vehicle: saline with Tween-80) is on record as 5 of 6; the survivor count under setting [2] was 6 of 6; the survivor count under setting [4] is given as 1 of 6; the survivor count (dose: 400.0 mg/kg/injection, schedule: Q01DX001 (ip), vehicle: acetone) was 2 of 6.
As for `CS(=O)(=O)c1ncc2cnccn12`, the T/C (dose: 200.0 mg/kg/injection, schedule: Q04DX003 (ip), vehicle: water) is 137 % of control. Further, under “dose: 400.0 mg/kg/injection, schedule: Q01DX009 (ip), vehicle: water”, the survivor count is listed as 3 of 6.
For the molecule `Clc1ccc(C2=NC3=CC(Cl)C=CC3=CC2C2CO2)cc1` (centres undefined), where the note is “dose: 400.0 mg/kg/injection, schedule: Q01DX009 (ip), vehicle: Klucel (hydroxypropylcellulose) (HPC)”, the survivor count is given as 6 of 6.
In the case of `CCCCN(C)N=Nc1ccccc1C(=O)OC`, the survivor count under setting [1] is recorded as 2 of 4.
For `CCc1ccc(NC(=O)N(CCCl)N=O)cc1`, the T/C (dose: 5.0 mg/kg/injection, schedule: Q01DX009 (ip), vehicle: Klucel (hydroxypropylcellulose) (HPC)) was 141 % of control; the T/C (dose: 12.5 mg/kg/injection, schedule: Q04DX003 (ip), vehicle: Klucel (hydroxypropylcellulose) (HPC)) was 130 % of control; the T/C (dose: 25.0 mg/kg/injection, schedule: Q04DX003 (ip), vehicle: Klucel (hydroxypropylcellulose) (HPC)) is 147 % of control; the T/C (dose: 40.0 mg/kg/injection, schedule: Q01DX009 (ip), vehicle: Klucel (hydroxypropylcellulose) (HPC)) was 141 % of control; the T/C under setting [8] is 133 and 142 % of control; the T/C under setting [9] is 131 % of control. Besides, the survivor count is 2 of 6 and 6 of 6 (dose: 80.0 mg/kg/injection, schedule: Q01DX009 (ip), vehicle: Klucel (hydroxypropylcellulose) (HPC)); 2 of 4 (dose: 200.0 mg/kg/injection, schedule: Q01DX001 (ip), vehicle: carboxymethylcellulose (CMC)); 1 of 4 under setting [1].
As for `C[OH+]c1ccccc1C(=O)O.C[OH+]c1ccccc1C(=O)O.[Ni]`, the survivor count (dose: 400.0 mg/kg/injection, schedule: Q04DX002 (ip), vehicle: saline with Tween-80) was 2 of 3.
